Data published in article PMC9270398.
No constants are given. Whether binding was seen depends on the method and setting. In cells and extracts the contact can be indirect. Some results given as binding are weak or reduced against the parent protein; the word gives no strength. For some assays here: Sequences can lack the tags named with a protein.

Sequences of proteins named here, by UniProt entry; tags and fusion partners are left off.
UniProt Q8NDV7: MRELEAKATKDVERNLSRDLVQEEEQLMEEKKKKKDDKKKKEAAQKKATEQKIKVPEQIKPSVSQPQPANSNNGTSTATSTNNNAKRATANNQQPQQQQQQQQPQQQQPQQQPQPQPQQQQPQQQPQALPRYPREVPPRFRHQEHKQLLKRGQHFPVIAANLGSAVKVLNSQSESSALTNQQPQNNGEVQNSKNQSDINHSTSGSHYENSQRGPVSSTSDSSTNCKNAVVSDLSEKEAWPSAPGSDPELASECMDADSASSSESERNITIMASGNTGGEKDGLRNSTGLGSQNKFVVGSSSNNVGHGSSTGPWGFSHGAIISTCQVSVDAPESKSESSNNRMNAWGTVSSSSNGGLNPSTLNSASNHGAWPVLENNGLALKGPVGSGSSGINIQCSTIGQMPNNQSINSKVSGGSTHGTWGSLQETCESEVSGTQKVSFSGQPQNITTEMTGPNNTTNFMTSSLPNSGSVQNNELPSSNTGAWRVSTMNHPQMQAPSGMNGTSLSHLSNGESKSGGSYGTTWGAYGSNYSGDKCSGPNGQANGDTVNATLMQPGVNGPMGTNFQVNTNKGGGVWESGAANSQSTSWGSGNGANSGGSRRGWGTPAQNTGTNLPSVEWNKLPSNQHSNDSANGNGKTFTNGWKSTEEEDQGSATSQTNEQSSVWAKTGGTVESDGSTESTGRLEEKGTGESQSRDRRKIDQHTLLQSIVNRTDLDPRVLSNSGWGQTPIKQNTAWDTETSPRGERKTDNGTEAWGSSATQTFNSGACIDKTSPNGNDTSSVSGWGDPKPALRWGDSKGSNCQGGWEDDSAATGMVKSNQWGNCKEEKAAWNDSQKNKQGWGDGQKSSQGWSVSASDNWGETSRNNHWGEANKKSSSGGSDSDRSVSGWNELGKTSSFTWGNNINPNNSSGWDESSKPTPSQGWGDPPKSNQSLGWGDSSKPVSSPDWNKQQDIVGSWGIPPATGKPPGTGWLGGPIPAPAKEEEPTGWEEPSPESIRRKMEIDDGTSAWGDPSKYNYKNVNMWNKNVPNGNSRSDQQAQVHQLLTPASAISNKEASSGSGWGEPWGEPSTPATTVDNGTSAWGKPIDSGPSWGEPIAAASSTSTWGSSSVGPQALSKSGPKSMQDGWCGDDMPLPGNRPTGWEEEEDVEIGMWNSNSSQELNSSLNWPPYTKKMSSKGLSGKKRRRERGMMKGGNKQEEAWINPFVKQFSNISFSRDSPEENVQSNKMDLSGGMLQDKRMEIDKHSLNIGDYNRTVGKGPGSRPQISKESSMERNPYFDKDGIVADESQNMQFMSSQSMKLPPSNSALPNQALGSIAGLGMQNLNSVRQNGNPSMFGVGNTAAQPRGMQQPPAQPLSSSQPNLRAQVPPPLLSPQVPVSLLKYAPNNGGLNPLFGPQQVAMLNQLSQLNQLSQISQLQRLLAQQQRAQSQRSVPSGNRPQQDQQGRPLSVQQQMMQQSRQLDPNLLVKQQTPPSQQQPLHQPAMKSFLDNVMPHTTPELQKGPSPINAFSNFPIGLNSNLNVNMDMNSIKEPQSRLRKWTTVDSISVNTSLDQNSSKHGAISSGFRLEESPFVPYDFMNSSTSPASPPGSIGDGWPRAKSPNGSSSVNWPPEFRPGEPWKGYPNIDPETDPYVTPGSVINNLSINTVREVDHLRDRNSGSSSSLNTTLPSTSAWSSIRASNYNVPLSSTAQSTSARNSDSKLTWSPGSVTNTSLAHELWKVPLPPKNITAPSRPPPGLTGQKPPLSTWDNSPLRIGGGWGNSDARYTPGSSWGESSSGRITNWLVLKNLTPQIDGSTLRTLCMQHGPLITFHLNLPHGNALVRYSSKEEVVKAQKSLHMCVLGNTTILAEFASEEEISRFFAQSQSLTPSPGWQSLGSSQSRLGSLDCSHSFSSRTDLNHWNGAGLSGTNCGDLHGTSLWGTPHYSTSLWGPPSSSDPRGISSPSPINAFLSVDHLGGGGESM

T1: GFP-TRIM24 fusion protein (tripartite motif-containing 24) (not stated (human or mouse cDNA cloned)) (UniProt O15164)
T1 sequence: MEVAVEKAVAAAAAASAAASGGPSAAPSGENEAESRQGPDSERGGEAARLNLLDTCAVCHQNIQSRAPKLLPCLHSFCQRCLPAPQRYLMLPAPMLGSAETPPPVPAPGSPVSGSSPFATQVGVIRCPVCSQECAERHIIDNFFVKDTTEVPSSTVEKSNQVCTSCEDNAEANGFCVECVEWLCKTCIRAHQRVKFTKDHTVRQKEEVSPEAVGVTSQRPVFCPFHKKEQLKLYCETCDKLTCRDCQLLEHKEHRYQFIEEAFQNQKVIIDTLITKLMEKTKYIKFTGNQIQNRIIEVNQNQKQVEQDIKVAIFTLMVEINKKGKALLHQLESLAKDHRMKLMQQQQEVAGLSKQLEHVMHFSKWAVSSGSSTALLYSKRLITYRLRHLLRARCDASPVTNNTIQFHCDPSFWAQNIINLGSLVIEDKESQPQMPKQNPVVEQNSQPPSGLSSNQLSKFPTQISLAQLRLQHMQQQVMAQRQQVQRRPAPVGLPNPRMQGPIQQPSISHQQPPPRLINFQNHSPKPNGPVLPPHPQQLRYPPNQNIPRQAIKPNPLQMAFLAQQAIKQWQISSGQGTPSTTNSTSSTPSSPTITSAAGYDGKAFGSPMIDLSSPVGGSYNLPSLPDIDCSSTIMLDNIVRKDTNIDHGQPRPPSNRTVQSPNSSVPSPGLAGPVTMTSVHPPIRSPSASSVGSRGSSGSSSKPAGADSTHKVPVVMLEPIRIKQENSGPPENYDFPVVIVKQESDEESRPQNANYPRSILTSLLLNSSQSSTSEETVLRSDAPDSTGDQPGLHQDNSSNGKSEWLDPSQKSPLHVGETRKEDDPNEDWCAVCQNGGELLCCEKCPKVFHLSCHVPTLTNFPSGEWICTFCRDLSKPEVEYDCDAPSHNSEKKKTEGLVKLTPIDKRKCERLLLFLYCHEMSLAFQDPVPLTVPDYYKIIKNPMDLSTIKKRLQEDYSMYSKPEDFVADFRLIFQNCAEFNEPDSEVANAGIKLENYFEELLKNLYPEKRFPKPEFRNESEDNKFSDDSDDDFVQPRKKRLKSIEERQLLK

T2: TRIM24, endogenous in mouse liver / primary hepatocytes (mouse (endogenous in primary hepatocytes)) (UniProt Q64127)
T2 sequence: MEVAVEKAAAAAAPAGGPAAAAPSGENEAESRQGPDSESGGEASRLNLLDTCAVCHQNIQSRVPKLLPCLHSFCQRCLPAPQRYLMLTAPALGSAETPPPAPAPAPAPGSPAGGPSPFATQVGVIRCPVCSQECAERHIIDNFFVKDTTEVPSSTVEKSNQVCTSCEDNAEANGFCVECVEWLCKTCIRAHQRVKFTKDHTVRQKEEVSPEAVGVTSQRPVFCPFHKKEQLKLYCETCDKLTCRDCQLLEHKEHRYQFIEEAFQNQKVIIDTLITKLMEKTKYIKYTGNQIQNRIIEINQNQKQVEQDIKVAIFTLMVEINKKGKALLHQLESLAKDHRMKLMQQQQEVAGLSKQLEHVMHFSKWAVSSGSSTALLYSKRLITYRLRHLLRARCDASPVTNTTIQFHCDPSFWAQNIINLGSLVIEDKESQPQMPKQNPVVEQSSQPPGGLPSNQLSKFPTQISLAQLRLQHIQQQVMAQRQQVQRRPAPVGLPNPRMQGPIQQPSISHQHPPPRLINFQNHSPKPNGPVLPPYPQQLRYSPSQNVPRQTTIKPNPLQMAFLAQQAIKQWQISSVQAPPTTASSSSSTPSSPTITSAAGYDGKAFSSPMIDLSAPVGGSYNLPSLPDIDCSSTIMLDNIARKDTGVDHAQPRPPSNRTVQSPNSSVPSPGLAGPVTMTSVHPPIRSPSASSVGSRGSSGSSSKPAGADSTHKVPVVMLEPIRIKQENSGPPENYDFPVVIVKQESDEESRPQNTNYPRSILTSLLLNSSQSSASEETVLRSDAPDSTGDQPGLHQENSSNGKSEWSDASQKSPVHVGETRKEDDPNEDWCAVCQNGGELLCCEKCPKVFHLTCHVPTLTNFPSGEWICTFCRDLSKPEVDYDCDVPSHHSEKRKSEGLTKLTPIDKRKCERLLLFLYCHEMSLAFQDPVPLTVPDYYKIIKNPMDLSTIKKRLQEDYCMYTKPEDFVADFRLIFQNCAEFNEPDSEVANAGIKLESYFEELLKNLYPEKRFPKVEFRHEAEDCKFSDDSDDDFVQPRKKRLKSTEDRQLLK


What was measured:
[1] = biological target: T1, GFP-TRIM24 fusion protein (tripartite motif-containing 24) (not stated (human or mouse cDNA cloned)); assay: co-IP; Flag- or Myc-tagged protein co-expressed with GFP-TRIM24 in HEK293 cells; immunoprecipitation with the GFP antibody (control IgG or no GFP-TRIM24), immunoblotting
[2] = biological target: T1, GFP-TRIM24 fusion protein (tripartite motif-containing 24) (not stated (human or mouse cDNA cloned)); assay: co-IP; GFP-TRIM24 expressed in HEK293 cells, immunoprecipitated with the GFP antibody; endogenous P-body components detected by immunoblotting
[3] = biological target: T2, TRIM24, endogenous in mouse liver / primary hepatocytes (mouse (endogenous in primary hepatocytes)); assay: co-IP; endogenous TRIM24 immunoprecipitated with the TRIM24 antibody from lysates of mouse primary hepatocytes (text: liver lysates); endogenous P-body components detected by immunoblotting

binding [1] | binding [2] | Molecule | further results
binds | – | Myc-AGO1 (from UniProt Q9UL18 1-857) | –
– | binds | GW182 protein, endogenous in HEK293 cells (from UniProt Q8NDV7 1-1962) | –
binds | – | Flag-AGO2 (from UniProt Q9UKV8-1 1-859) | –
– | binds | EDC4 (enhancer of decapping protein 4), endogenous in HEK293 cells (protein, UniProt Q6P2E9-1 1-1401) MASCASIDIEDATQHLRDILKLDRPAGGPSAESPRPSSAYNGDLNGLLVPDPLCSGDSTSANKTGLRTMPPINLQEKQVICLSGDDSSTCIGILAKEVEIVASSDSSISSKARGSNKVKIQPVAKYDWEQKYYYGNLIAVSNSFLAYAIRAANNGSAMVRVISVSTSERTLLKGFTGSVADLAFAHLNSPQLACLDEAGNLFVWRLALVNGKIQEEILVHIRQPEGTPLNHFRRIIWCPFIPEESEDCCEESSPTVALLHEDRAEVWDLDMLRSSHSTWPVDVSQIKQGFIVVKGHSTCLSEGALSPDGTVLATASHDGYVKFWQIYIEGQDEPRCLHEWKPHDGRPLSCLLFCDNHKKQDPDVPFWRFLITGADQNRELKMWCTVSWTCLQTIRFSPDIFSSVSVPPSLKVCLDLSAEYLILSDVQRKVLYVMELLQNQEEGHACFSSISEFLLTHPVLSFGIQVVSRCRLRHTEVLPAEEENDSLGADGTHGAGAMESAAGVLIKLFCVHTKALQDVQIRFQPQLNPDVVAPLPTHTAHEDFTFGESRPELGSEGLGSAAHGSQPDLRRIVELPAPADFLSLSSETKPKLMTPDAFMTPSASLQQITASPSSSSSGSSSSSSSSSSSLTAVSAMSSTSAVDPSLTRPPEELTLSPKLQLDGSLTMSSSGSLQASPRGLLPGLLPAPADKLTPKGPGQVPTATSALSLELQEVEPLGLPQASPSRTRSPDVISSASTALSQDIPEIASEALSRGFGSSAPEGLEPDSMASAASALHLLSPRPRPGPELGPQLGLDGGPGDGDRHNTPSLLEAALTQEASTPDSQVWPTAPDITRETCSTLAESPRNGLQEKHKSLAFHRPPYHLLQQRDSQDASAEQSDHDDEVASLASASGGFGTKVPAPRLPAKDWKTKGSPRTSPKLKRKSKKDDGDAAMGSRLTEHQVAEPPEDWPALIWQQQRELAELRHSQEELLQRLCTQLEGLQSTVTGHVERALETRHEQEQRRLERALAEGQQRGGQLQEQLTQQLSQALSSAVAGRLERSIRDEIKKTVPPCVSRSLEPMAGQLSNSVATKLTAVEGSMKENISKLLKSKNLTDAIARAAADTLQGPMQAAYREAFQSVVLPAFEKSCQAMFQQINDSFRLGTQEYLQQLESHMKSRKAREQEAREPVLAQLRGLVSTLQSATEQMAATVAGSVRAEVQHQLHVAVGSLQESILAQVQRIVKGEVSVALKEQQAAVTSSIMQAMRSAAGTPVPSAHLDCQAQQAHILQLLQQGHLNQAFQQALTAADLNLVLYVCETVDPAQVFGQPPCPLSQPVLLSLIQQLASDLGTRTDLKLSYLEEAVMHLDHSDPITRDHMGSVMAQVRQKLFQFLQAEPHNSLGKAARRLSLMLHGLVTPSLP | –
binds | – | Flag-EDC4 (protein, UniProt Q6P2E9-1 1-1401) MASCASIDIEDATQHLRDILKLDRPAGGPSAESPRPSSAYNGDLNGLLVPDPLCSGDSTSANKTGLRTMPPINLQEKQVICLSGDDSSTCIGILAKEVEIVASSDSSISSKARGSNKVKIQPVAKYDWEQKYYYGNLIAVSNSFLAYAIRAANNGSAMVRVISVSTSERTLLKGFTGSVADLAFAHLNSPQLACLDEAGNLFVWRLALVNGKIQEEILVHIRQPEGTPLNHFRRIIWCPFIPEESEDCCEESSPTVALLHEDRAEVWDLDMLRSSHSTWPVDVSQIKQGFIVVKGHSTCLSEGALSPDGTVLATASHDGYVKFWQIYIEGQDEPRCLHEWKPHDGRPLSCLLFCDNHKKQDPDVPFWRFLITGADQNRELKMWCTVSWTCLQTIRFSPDIFSSVSVPPSLKVCLDLSAEYLILSDVQRKVLYVMELLQNQEEGHACFSSISEFLLTHPVLSFGIQVVSRCRLRHTEVLPAEEENDSLGADGTHGAGAMESAAGVLIKLFCVHTKALQDVQIRFQPQLNPDVVAPLPTHTAHEDFTFGESRPELGSEGLGSAAHGSQPDLRRIVELPAPADFLSLSSETKPKLMTPDAFMTPSASLQQITASPSSSSSGSSSSSSSSSSSLTAVSAMSSTSAVDPSLTRPPEELTLSPKLQLDGSLTMSSSGSLQASPRGLLPGLLPAPADKLTPKGPGQVPTATSALSLELQEVEPLGLPQASPSRTRSPDVISSASTALSQDIPEIASEALSRGFGSSAPEGLEPDSMASAASALHLLSPRPRPGPELGPQLGLDGGPGDGDRHNTPSLLEAALTQEASTPDSQVWPTAPDITRETCSTLAESPRNGLQEKHKSLAFHRPPYHLLQQRDSQDASAEQSDHDDEVASLASASGGFGTKVPAPRLPAKDWKTKGSPRTSPKLKRKSKKDDGDAAMGSRLTEHQVAEPPEDWPALIWQQQRELAELRHSQEELLQRLCTQLEGLQSTVTGHVERALETRHEQEQRRLERALAEGQQRGGQLQEQLTQQLSQALSSAVAGRLERSIRDEIKKTVPPCVSRSLEPMAGQLSNSVATKLTAVEGSMKENISKLLKSKNLTDAIARAAADTLQGPMQAAYREAFQSVVLPAFEKSCQAMFQQINDSFRLGTQEYLQQLESHMKSRKAREQEAREPVLAQLRGLVSTLQSATEQMAATVAGSVRAEVQHQLHVAVGSLQESILAQVQRIVKGEVSVALKEQQAAVTSSIMQAMRSAAGTPVPSAHLDCQAQQAHILQLLQQGHLNQAFQQALTAADLNLVLYVCETVDPAQVFGQPPCPLSQPVLLSLIQQLASDLGTRTDLKLSYLEEAVMHLDHSDPITRDHMGSVMAQVRQKLFQFLQAEPHNSLGKAARRLSLMLHGLVTPSLP | –
– | – | LSM1, endogenous in mouse liver / primary hepatocytes (protein, UniProt Q8VC85 1-133) MNYMPGTASLIEDIDKKHLVLLRDGRTLIGFLRSIDQFANLVLHQTVERIHVGKKYGDIPRGIFVVRGENVVLLGEIDLEKESDTPLQQVSIEEILEEQRVQQQTRLEAEKLKVQTLKDRGLSIPRADTLDEY | binding [3]: binds
– | binds | LSM1, endogenous in HEK293 cells (protein, UniProt O15116 1-133) MNYMPGTASLIEDIDKKHLVLLRDGRTLIGFLRSIDQFANLVLHQTVERIHVGKKYGDIPRGIFVVRGENVVLLGEIDLEKESDTPLQQVSIEEILEEQRVEQQTKLEAEKLKVQALKDRGLSIPRADTLDEY | –
binds | – | Flag-EDC4^M1-H538 fragment (contains the WD40 domain) (domain or fragment, UniProt Q6P2E9-1 1-538) MASCASIDIEDATQHLRDILKLDRPAGGPSAESPRPSSAYNGDLNGLLVPDPLCSGDSTSANKTGLRTMPPINLQEKQVICLSGDDSSTCIGILAKEVEIVASSDSSISSKARGSNKVKIQPVAKYDWEQKYYYGNLIAVSNSFLAYAIRAANNGSAMVRVISVSTSERTLLKGFTGSVADLAFAHLNSPQLACLDEAGNLFVWRLALVNGKIQEEILVHIRQPEGTPLNHFRRIIWCPFIPEESEDCCEESSPTVALLHEDRAEVWDLDMLRSSHSTWPVDVSQIKQGFIVVKGHSTCLSEGALSPDGTVLATASHDGYVKFWQIYIEGQDEPRCLHEWKPHDGRPLSCLLFCDNHKKQDPDVPFWRFLITGADQNRELKMWCTVSWTCLQTIRFSPDIFSSVSVPPSLKVCLDLSAEYLILSDVQRKVLYVMELLQNQEEGHACFSSISEFLLTHPVLSFGIQVVSRCRLRHTEVLPAEEENDSLGADGTHGAGAMESAAGVLIKLFCVHTKALQDVQIRFQPQLNPDVVAPLPTH | –
